Measurements: PMC10163288
The list shows a part of the results.

B1: il2ra_site1_3nfp_normal_mot_HHH_b1_05162_af2_000000139_0001_1_18_H_._HHH_b1_02574_af2_0001_0000500035_0000001_0 (protein)
chain: SSSSNEERRRAQELLKEIKRAIKHGDEERAKELLEEVEELAEKANDKAAKWAVEELEKSLKSSSS
B2: il2ra_site2_2erj_sap_19_mot_HHH_b2_03659_000000135_0001_38_56_H_._HHH_b2_01839_0001_0000100005_0000001_0_0001 (protein)
chain: SSSSSDLRQLYELLNELMKAIENGDEELFEELVREIRELAEELDSENAREMLEVLERSFKSSSSS
B3: il2ra_site2_2erj_sap_18_mot_9b841c8fe2e6d1e24304b827c5c38554_0001_1_af2_000000119_0001_36_49_H_._HHH_b1_03327_0001_0000200020_0000001_0_0001 (protein)
chain: SSSSSSEEEEEIRELIEEAKQIEDPEEALEVLRKAAQLAFQINDFELFSEIAELLRELGSSSSSS
B4: il2ra_site2_3nfp_sap_20_mot_HHH_b1_03259_000000044_0001_22_38_H_._HHH_b2_07525_0001_0000400029_0000001_0_0001_af2pred_0001_af2pred (protein)
chain: SEEEELEREAKENPEEFIRRAALEALEAGDDELFSEVLLLREAVERGEIPPEEAARLVVEVLRES
B5: il2ra_site2_2erj_sap_20_mot_HHH_b1_08290_000000297_0001_19_37_H_._HEEHE_0898_0001_0000100005_0000001_0_0001 (protein)
chain: SSSSDAWEFAAEVSIEALELYKEGNPEEAERLVEEAEEIAKELNDPHALEYLEHLLKHIRHSSSS
B6: il2ra_site1_2b5i_normal_mot_HHH_b1_08745_af2_000000166_0001_39_57_H_._HHH_b1_05884_0001_0000600032_0000001_0_af2pred_dldesign_0_af2pred (protein)
chain: SSSSSPEIQKLREMFEEADRLFKAGKYEEAKELLEKALKLAKELGANLELRIIQSALEQLESSSS
B7: il2ra_site1_3nfp_sap_4_mot_ems_3hC_617_000000125_0001_25_41_H_._HHH_b1_07175_0001_0000300021_0000001_0_0001_af2pred_0001_1_af2pred_swapped (protein)
chain: SSSSSTEELQEASEKVLKLLREADRDPERAEELLKRARELIEEVNSRALKFILERIEELLSSSSS
B8: il2ra_site2_2erj_normal_mot_HHH_b2_01649_000000268_0001_20_36_H_._HHH_b2_02810_0001_0000700046_0000001_0 (protein)
chain: SSSSDEEVREEVERLLEEAKQIEDEEEAEKLLRRAAELAFRNRDEELWSLIAEVLEELIRSSSSS
B9: il2ra_site2_2erj_normal_mot_c2bf78bdce995293a161f7082e24b401_0001_af2_000000082_0001_17_32_H_._HHH_b2_06191_0001_0000300020_0000001_0 (protein)
chain: SSSSSLERLYELANRLLHLVHNNDEEEFEELLREAQELAEKFGSQTVEEILEFLEELIKGSSSSS
B10: il2ra_site1_3nfp_sap_23_mot_ems_3hC_921_af2_000000143_0001_22_40_H_._HHH_b1_07723_0001_0000200012_0000001_0_0001 (protein)
chain: SEDEEEAEKLLKRIVPPFAVRMLKILAEAVKRGNPNAKRRLEYDERSARHLGDEDVVEAIELLRK
B11: il2ra_site2_2erj_normal_mot_6c2800a769814540b5b47941e710ff28_0001_000000197_0001_35_49_H_._HHH_b2_01083_0001_0000200011_0000001_0 (protein)
chain: SSSSLEEDFRVAVEAAARASELHRRGNPEEAQEVLEEAIEFVEKNGNENAKELLESLLRILSSSS
B12: il2ra_site1_3nfp_sap_18_mot_ems_3hC_836_0002_000000087_0001_24_40_H_._HHH_b2_00679_0001_0000200013_0000001_0_0001_af2pred_0001_af2pred (protein)
chain: SSSSSDEKEELEELIRRAHKLAKNGNPEEARELLEQAEELAEKLGSRAAVRFVRSILRILSSSSS
B13: il2ra_site1_3nfp_sap_7_mot_HHH_b2_02342_000000249_0001_42_55_H_._HHH_b1_05136_0001_0001500020_0000001_0_0001_af2pred_0001_af2pred_1 (protein)
chain: SSSSDEEKALRKFVEDAVKAAGLSEEDKERLEEVVEELVRQGVSSQEAARIIAELAAKLHHSSSS
B14: il2ra_site2_2erj_sap_7_mot_87b7e031a888ead1881e674a44c3f2a3_0001_1_af2_000000022_0001_37_50_H_._HHH_b1_04171_0001_0000200003_0000001_0_0001 (protein)
chain: SSSSDEEELKKLLEEAEELLENGNPEEAWRVLRRAASLAWQLNDFELWSKIAELLRAIAKSSSSS
B15: il2ra_site1_3nfp_sap_18_mot_HHH_b1_01736_000000293_0001_24_39_H_._HHH_b2_01871_0001_0000300019_0000001_0_0001_af2pred_0001_af2pred_1 (protein)
chain: SDRAIELYVERAVKLNSPKALKKFLEDLEKHHGDPEEAERFLEEALEAVLGDPEEVERLLKLAKE
B16: il2ra_site1_1z92_normal_mot_HHH_b1_08597_af2_000000202_0001_42_56_H_._6e12af4a48b4634929ba45889b8be782_0001_0001_0000300015_0000001_0 (protein)
chain: NVEWAIENLERLARLQGNPEVEEVLRRVLELLKKNEEEAERFLEKLVEELGDKLLRLLLRMLKDA
B17: il2ra_site1_1z92_normal_mot_01209686ea234b34325f918445e6eade_0001_af2_000000154_0001_18_33_H_._HHH_b2_03062_af2_0001_0000100027_0000001_0 (protein)
chain: SSSSDEELEEIAEEIVEELVRKLNLSEHDEEALRKDAELAVRLGFSPKSLEYALEHAAKLASSSS
B18: il2ra_site2_3nfp_normal_mot_HHH_b2_05281_000000198_0001_39_56_H_._HHH_b2_04588_0001_0000400028_0000001_0 (protein)
chain: SSSSSDVEEEVERLLEEARKSSDEEERERLIAEAVELAYEARDSELFYLIAEVAFELRQSSSSSS
B19: il2ra_site2_3nfp_sap_20_mot_HHH_b2_00486_000000264_0001_1_16_H_._HHH_b1_03674_af2_0001_0000300006_0000001_0_0001 (protein)
chain: SSSSDREEVEELLEEARELLEEGNPQEAAQVVMEASELAAKLNDPELARAVLELYELLKRSSSSS
B20: il2ra_site1_3nfp_sap_10_mot_HHH_b1_07644_af2_000000110_0001_40_57_H_._HHH_b2_03060_af2_0001_0000700014_0000001_0_0001 (protein)
chain: SSSSSERMKEFEKIAREVMRLLREGDEEEAKRLIERLEELAEEWNDPAAEWLVEQLERRASSSSS
B21: il2ra_site1_3nfp_normal_mot_HHH_b1_04735_000000141_0001_19_38_H_._80d2c3d53f8320a55307537ed575e81c_0001_0001_0000400031_0000001_0 (protein)
chain: SEYDELFRRAVRLLPPEAIELLFRVLKRAIKNGDEELARELVEEVLELAKHDPREAEEFLQEILK
B22: il2ra_site2_3nfp_sap_18_mot_HHH_b1_00239_000000199_0001_23_39_H_._ad81070c4fcd12ba5f163adb410dbfa5_0001_0001_0000600043_0000001_0_0001 (protein)
chain: SDAYRLAEEALRLAEEVKEDPEKREELAEEVKRLAEEVEKNAKTEAERLAARLIRAHALVNEESS
B23: il2ra_site2_3nfp_normal_mot_ems_p1-15H-GBL-16H-GBL-14H_0089_0001_0001_0001_af2_000000072_0001_19_33_H_._HHH_b1_02393_0001_0000100012_0000001_0_af2pred_0001_1_af … (protein)
chain: SSSSSDEEEREEVEELLEEAKHIEDEHELFAVLADALTIALELNDPELEELVKRVARKLLSSSSS
B24: il2ra_site2_3nfp_sap_24_mot_HHH_b2_07366_af2_000000244_0001_39_56_H_._HHH_b1_01524_0001_0000600025_0000001_0_0001 (protein)
chain: SSSSSKSEEYLRAALEIARLALEDGDPESAEEIARTALLAARDQGDEELEEEIEELLRKIGSSSS

These binders were tested against il2ra, P01589 (assay: yeast display titration).

Apparent Kd, inactive:
B1 no binding seen
B2 no binding seen
B3 no binding seen
B4 no binding seen
B5 no binding seen
B6 no binding seen
B7 no binding seen
B8 no binding seen
B9 no binding seen
B10 no binding seen
B11 no binding seen
B12 no binding seen
B13 no binding seen
B14 no binding seen
B15 no binding seen
B16 no binding seen
B17 no binding seen
B18 no binding seen
B19 no binding seen
B20 no binding seen
B21 no binding seen
B22 no binding seen
B23 no binding seen
B24 no binding seen

Already shown: an excerpt of the list.
Apparent Kd, inactive:
B19 no binding seen
B20 no binding seen
